In patent US12409151B2, “Transdermal device comprising NSAID or analgesic prodrug molecules” (Remedy Diagnostics LLC, priority 2019, dated 2025):
Some entries share one result that the patent states for a list of compounds. At least one compound was matched to its structure with a doubt left.

Experiment: Skin permeation across excised human skin (Franz cell), UV-Vis of receptor media
Assay type: in vitro ADME
Details: 50% DMSO in PEG 400
Experimental: Skin Permeation Studies: Upon completion of the solubility and stability studies, the ability of the compound to permeate the skin in the selected solvent/vehicle was tested and the rate of permeation was measured to determine whether the compound permeated to an extent relevant for clinical use in a transdermal patch. Specifically, 4-acetoxyacetanilide was assessed for skin permeation across human skin over a 24 h time period.
Methods: For the skin permeation studies, a sample chamber containing 5 mL of 50% Polyethylene glycol 400 in ethanol was used as the receptor media. […] These samples were analyzed via UV-Vis spectroscopy (Tecan m200 Infinity Multi-Well Plate Reader) for absorbance at 246 nm and were blanked relative to that of the empty vehicle. […]
Skin permeation studies: Upon completion of the solubility and stability studies, the ability of the pro-IBU compound to permeate the skin in the selected solvent/vehicle was tested and the rate of permeation was measured to determine whether the compound will permeate to an extent relevant for clinical use in a transdermal patch. Specifically, ethyl 2-(4-isobutylphenyl)-propanoate was assessed for skin permeation across human skin over a 24 h time period. […]

## CC(=O)Nc1ccc(OC(C)=O)cc1 [Pro-APAP, 4-acetoxyacetanilide]
  lag time: 2 to 5 h
